Drawing on EP1591456A1 (Genentech Inc., dated 2005), this text covers binding for three molecules.

The target of one experiment is T1, recombinant human DAF (human, UniProt P08174 35-353, limits assumed).
T1 construct: also called recombinant human decay accelerating factor; CD55
T1 sequence (looked up): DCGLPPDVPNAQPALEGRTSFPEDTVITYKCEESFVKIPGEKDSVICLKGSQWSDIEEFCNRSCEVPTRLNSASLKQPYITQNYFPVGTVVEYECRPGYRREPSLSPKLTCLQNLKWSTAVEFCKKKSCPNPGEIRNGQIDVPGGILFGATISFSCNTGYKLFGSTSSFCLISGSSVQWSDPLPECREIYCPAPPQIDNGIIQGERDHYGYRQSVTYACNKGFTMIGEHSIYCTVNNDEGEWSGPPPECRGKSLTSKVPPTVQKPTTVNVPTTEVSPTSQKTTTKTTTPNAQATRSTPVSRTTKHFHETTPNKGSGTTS
The experiment in a line: flow cytometry competition on 1264 cells, soluble recombinant human DAF as competitor.

Experiment [1] addresses DAF (immunoaffinity purified, detected by western blot) (UniProt P08174). The experiment in a line: immunoaffinity purification followed by western blotting with anti-DAF antibody IA10.

No constants are given. Whether binding was seen depends on the method and setting. Some results given as binding are weak or reduced against the parent protein; the word gives no strength.

B1: LU30 scFv fragment (scFv, V domains shown)
VH: QVKLQESGGGLVQPGGSLKLSCAASGFTFSGYGMSWIRQTPDKRLEWVATINSGGSYTYYSDSVKGRFTISRDNVKNTLYLQMSSLKSEDTAMYYCARRNGTLYYYLMDYWGRGTLVTVSS
VL: QSVLTQPPSASGSPGQSVTISCTGTSSDVGGYNYVSWYQQHPGKAPKFMIYDVSKRPSGVSNRFSGSKSGNTASLTISGVQAEDEADYYCSSYTSASTVIFGGGTKLTVL
notes: Human scFv from a naive phage library (Vaughan et al.), secreted from E. coli and purified by its His tag; The full scFv is said to be under GenBank AF117206; also called clone LU30
On to B1, for which the binding entry with recombinant human DAF is listed as “binds”.

B2: LU13 scFv fragment (scFv, V domains shown)
VH: QVQLQESGGNLVQPGGSLRLSCAASGFTFSSYAMSWVRQAPGKGLEWVSAISGSGGNTYYADSVKGRFTISRDNSKNTLYLQMNTLRAEDTAVYYCARRASYDYWGQGTMVTVSS
VL: QSVLTQPASVSGSPGQSITVSCTGTSSDVGGYNYVSWYQQHPGKAPKLMIYEGSKRPSGVSNRFSGSKSGNTASLTISGLQAEDEADYYCSSYTTRSTRVFGGGTKLTVL
As to B2, the binding entry in experiment [1] is recorded as “binds”.

B3: LU20 scFv fragment (scFv, V domains shown)
VH: EVQLVETGGGLVQPGRSLRLSCAASGFTFEDYGMHWVRQAPGKGLEWVSGINWNGGSTGYADSVKGRFTISRDNAKNSLYLQMNSLRAEDTALYYCARDAPSGSYGYWFDPWGQGTLVTVSS
VL: DIQMTQSPSTLSASIGDRVTITCRASEGIYHWLAWYQQKPGKAPKLLIYKASSLASGAPSRFSGSGSGTDFTLTISSLQPDDFATYYCQQYSNYPLTFGGGTKLEIK
On to B3, for which the binding result in experiment [1] is recorded as “binds”.
